# In the supplement of paper PMC11438910:
# This is one part of the list. The signal is at background level for most entries.
# Columns and labels:
# Experiment in all cases: fluorescence intensity of antibody binding to polysaccharide-coupled beads; higher = stronger binding
# [1] = target: pneumococcal polysaccharide Pn47A
# [2] = target: pneumococcal polysaccharide Pn47F
# [3] = target: pneumococcal polysaccharide Pn48
# [4] = target: pneumococcal polysaccharide Pn5
# [5] = target: pneumococcal polysaccharide Pn6A
# [6] = target: pneumococcal polysaccharide Pn6B
# [7] = target: pneumococcal polysaccharide Pn6C
# [8] = target: pneumococcal polysaccharide Pn6D
# [9] = target: pneumococcal polysaccharide Pn7A
# [10] = target: pneumococcal polysaccharide Pn7B
# [11] = target: pneumococcal polysaccharide Pn7C
# [12] = target: pneumococcal polysaccharide Pn7F
# [13] = target: pneumococcal polysaccharide Pn8
# [14] = target: pneumococcal polysaccharide Pn9A
# [15] = target: pneumococcal polysaccharide Pn9L
# [16] = target: pneumococcal polysaccharide Pn9N
# [17] = target: pneumococcal polysaccharide Pn9V
# [18] = target: pneumococcal polysaccharide C-Poly-1
# [19] = target: pneumococcal polysaccharide C-Poly-2
# [20] = target: pneumococcal polysaccharide Pn1
# [21] = target: pneumococcal polysaccharide Pn10A
# [22] = antibody concentration 2337.65 ng/mL
# [23] = antibody concentration 12500 ng/mL
# [24] = antibody concentration 0.1 ng/mL
# [25] = antibody concentration 0.534724 ng/mL
# [26] = antibody concentration 2.8593 ng/mL
# [27] = antibody concentration 15.2894 ng/mL
# [28] = antibody concentration 81.7561 ng/mL
# [29] = antibody concentration 437.17 ng/mL
binder,measurement,setting,value
4-80.4 (protein) chain 1: QVQLQESGPGLVKPSETLSLTCAVSGGSFSSYWWSWIRQSPGKGLEWIGEISGNSGSTNYNPSLKSRVTISKDASKNQFSLKLSSVTAADTAVYYCARYKEYWGQGVLVTVSS chain 2: DVVMTQSPLSLLITPGQPASISCRSSQSLVHSNGNTYLSWYQQKPGQPPRRLLYEVSNRDSGVPDRFSGSGAGTDFTLKISRVEAEDVGVYYCGQGTHLPYSFGQGTKVEIK,fluorescence intensity,[1]; [22],16.8 MFI
same,fluorescence intensity,[1]; [23],20 MFI
same,fluorescence intensity,[2]; [24],11 MFI
same,fluorescence intensity,[2]; [25],11.5 MFI
same,fluorescence intensity,[2]; [26],11 MFI
same,fluorescence intensity,[2]; [27],10.5 MFI
same,fluorescence intensity,[2]; [28],12 MFI
same,fluorescence intensity,[2]; [29],12 MFI
same,fluorescence intensity,[2]; [22],14.2 MFI
same,fluorescence intensity,[2]; [23],31.5 MFI
same,fluorescence intensity,[3]; [24],21 MFI
same,fluorescence intensity,[3]; [25],19.8 MFI
same,fluorescence intensity,[3]; [26],19 MFI
same,fluorescence intensity,[3]; [27],20.8 MFI
same,fluorescence intensity,[3]; [28],20.5 MFI
same,fluorescence intensity,[3]; [29],22 MFI
same,fluorescence intensity,[3]; [22],24.5 MFI
same,fluorescence intensity,[3]; [23],42.5 MFI
same,fluorescence intensity,[4]; [24],8.5 MFI
same,fluorescence intensity,[4]; [25],9 MFI
same,fluorescence intensity,[4]; [26],8.5 MFI
same,fluorescence intensity,[4]; [27],8.25 MFI
same,fluorescence intensity,[4]; [28],9.25 MFI
same,fluorescence intensity,[4]; [29],8.75 MFI
same,fluorescence intensity,[4]; [22],10.5 MFI
same,fluorescence intensity,[4]; [23],31 MFI
same,fluorescence intensity,[5]; [24],21.2 MFI
same,fluorescence intensity,[5]; [25],20.8 MFI
same,fluorescence intensity,[5]; [26],20.2 MFI
same,fluorescence intensity,[5]; [27],20 MFI
same,fluorescence intensity,[5]; [28],23 MFI
same,fluorescence intensity,[5]; [29],21 MFI
same,fluorescence intensity,[5]; [22],24 MFI
same,fluorescence intensity,[5]; [23],33 MFI
same,fluorescence intensity,[6]; [24],19 MFI
same,fluorescence intensity,[6]; [25],18.8 MFI
same,fluorescence intensity,[6]; [26],20 MFI
same,fluorescence intensity,[6]; [27],18.5 MFI
same,fluorescence intensity,[6]; [28],18 MFI
same,fluorescence intensity,[6]; [29],20.5 MFI
same,fluorescence intensity,[6]; [22],20.5 MFI
same,fluorescence intensity,[6]; [23],31.2 MFI
same,fluorescence intensity,[7]; [24],17.2 MFI
same,fluorescence intensity,[7]; [25],15 MFI
same,fluorescence intensity,[7]; [26],17 MFI
same,fluorescence intensity,[7]; [27],18.8 MFI
same,fluorescence intensity,[7]; [28],17.2 MFI
same,fluorescence intensity,[7]; [29],20.8 MFI
same,fluorescence intensity,[7]; [22],31 MFI
same,fluorescence intensity,[7]; [23],43 MFI
same,fluorescence intensity,[8]; [24],18.5 MFI
same,fluorescence intensity,[8]; [25],17.5 MFI
same,fluorescence intensity,[8]; [26],17.5 MFI
same,fluorescence intensity,[8]; [27],18 MFI
same,fluorescence intensity,[8]; [28],16.5 MFI
same,fluorescence intensity,[8]; [29],17.5 MFI
same,fluorescence intensity,[8]; [22],18 MFI
same,fluorescence intensity,[8]; [23],21.5 MFI
same,fluorescence intensity,[9]; [24],19 MFI
same,fluorescence intensity,[9]; [25],20.5 MFI
same,fluorescence intensity,[9]; [26],19.5 MFI
same,fluorescence intensity,[9]; [27],19 MFI
same,fluorescence intensity,[9]; [28],20.2 MFI
same,fluorescence intensity,[9]; [29],20 MFI
same,fluorescence intensity,[9]; [22],29.5 MFI
same,fluorescence intensity,[9]; [23],116 MFI
same,fluorescence intensity,[10]; [24],16 MFI
same,fluorescence intensity,[10]; [25],17.5 MFI
same,fluorescence intensity,[10]; [26],16.5 MFI
same,fluorescence intensity,[10]; [27],17.5 MFI
same,fluorescence intensity,[10]; [28],15 MFI
same,fluorescence intensity,[10]; [29],16 MFI
same,fluorescence intensity,[10]; [22],19 MFI
same,fluorescence intensity,[10]; [23],32 MFI
same,fluorescence intensity,[11]; [24],14 MFI
same,fluorescence intensity,[11]; [25],15.2 MFI
same,fluorescence intensity,[11]; [26],16 MFI
same,fluorescence intensity,[11]; [27],16.8 MFI
same,fluorescence intensity,[11]; [28],16.2 MFI
same,fluorescence intensity,[11]; [29],17 MFI
same,fluorescence intensity,[11]; [22],17.5 MFI
same,fluorescence intensity,[11]; [23],27 MFI
same,fluorescence intensity,[12]; [24],14.5 MFI
same,fluorescence intensity,[12]; [25],14.5 MFI
same,fluorescence intensity,[12]; [26],14 MFI
same,fluorescence intensity,[12]; [27],14 MFI
same,fluorescence intensity,[12]; [28],15 MFI
same,fluorescence intensity,[12]; [29],14.5 MFI
same,fluorescence intensity,[12]; [22],19 MFI
same,fluorescence intensity,[12]; [23],60.5 MFI
same,fluorescence intensity,[13]; [24],21 MFI
same,fluorescence intensity,[13]; [25],21.8 MFI
same,fluorescence intensity,[13]; [26],22 MFI
same,fluorescence intensity,[13]; [27],21.5 MFI
same,fluorescence intensity,[13]; [28],21.5 MFI
same,fluorescence intensity,[13]; [29],21 MFI
same,fluorescence intensity,[13]; [22],25 MFI
same,fluorescence intensity,[13]; [23],36.2 MFI
same,fluorescence intensity,[14]; [24],19.8 MFI
same,fluorescence intensity,[14]; [25],18.8 MFI
same,fluorescence intensity,[14]; [26],19 MFI
same,fluorescence intensity,[14]; [27],19.8 MFI
same,fluorescence intensity,[14]; [28],19 MFI
same,fluorescence intensity,[14]; [29],19.5 MFI
same,fluorescence intensity,[14]; [22],22 MFI
same,fluorescence intensity,[14]; [23],37.5 MFI
same,fluorescence intensity,[15]; [24],16.5 MFI
same,fluorescence intensity,[15]; [25],17.5 MFI
same,fluorescence intensity,[15]; [26],18.5 MFI
same,fluorescence intensity,[15]; [27],17 MFI
same,fluorescence intensity,[15]; [28],17 MFI
same,fluorescence intensity,[15]; [29],16.5 MFI
same,fluorescence intensity,[15]; [22],19.5 MFI
same,fluorescence intensity,[15]; [23],28.5 MFI
same,fluorescence intensity,[16]; [24],14.5 MFI
same,fluorescence intensity,[16]; [25],16 MFI
same,fluorescence intensity,[16]; [26],15.5 MFI
same,fluorescence intensity,[16]; [27],16.5 MFI
same,fluorescence intensity,[16]; [28],15.5 MFI
same,fluorescence intensity,[16]; [29],17 MFI
same,fluorescence intensity,[16]; [22],17.5 MFI
same,fluorescence intensity,[16]; [23],29.2 MFI
same,fluorescence intensity,[17]; [24],14 MFI
same,fluorescence intensity,[17]; [25],15.5 MFI
same,fluorescence intensity,[17]; [26],14 MFI
same,fluorescence intensity,[17]; [27],14.5 MFI
same,fluorescence intensity,[17]; [28],15 MFI
same,fluorescence intensity,[17]; [29],14.5 MFI
same,fluorescence intensity,[17]; [22],16 MFI
same,fluorescence intensity,[17]; [23],22 MFI
4-173.5 (protein) chain 1: QLQLQESGPGLVKPSETLSLTCAVSGDSISSNYWSWIRQPPGKGLEWIGRISDGGGSTDYNPSLKSRVTISTDTSKNQFSLKLNSVTAADTAVYFCARGSYRVDYWGQGVLVTVSS chain 2: QAALTQPPSMSGSPGQSVTISCTGASSDIGGYNRVSWYQQHPANAPKLMIYDVSKRPSGVSDRFSGSKSGNTASLTISGLQADDEADYYCSSYAHINTALFGGGTRLTVL,fluorescence intensity,[18]; [24],26.5 MFI
same,fluorescence intensity,[18]; [25],26 MFI
same,fluorescence intensity,[18]; [26],26.5 MFI
same,fluorescence intensity,[18]; [27],29.2 MFI
same,fluorescence intensity,[18]; [28],39 MFI
same,fluorescence intensity,[18]; [29],108 MFI
same,fluorescence intensity,[18]; [22],385 MFI
same,fluorescence intensity,[18]; [23],840 MFI
same,fluorescence intensity,[19]; [24],20.5 MFI
same,fluorescence intensity,[19]; [25],20.5 MFI
same,fluorescence intensity,[19]; [26],22.5 MFI
same,fluorescence intensity,[19]; [27],30 MFI
same,fluorescence intensity,[19]; [28],89.5 MFI
same,fluorescence intensity,[19]; [29],398 MFI
same,fluorescence intensity,[19]; [22],1530 MFI
same,fluorescence intensity,[19]; [23],2770 MFI
same,fluorescence intensity,[20]; [24],13.5 MFI
same,fluorescence intensity,[20]; [25],14.5 MFI
same,fluorescence intensity,[20]; [26],15.5 MFI
same,fluorescence intensity,[20]; [27],24.5 MFI
same,fluorescence intensity,[20]; [28],74.5 MFI
same,fluorescence intensity,[20]; [29],322 MFI
same,fluorescence intensity,[20]; [22],931 MFI
same,fluorescence intensity,[20]; [23],1520 MFI
same,fluorescence intensity,[21]; [24],28 MFI
same,fluorescence intensity,[21]; [25],27.5 MFI
same,fluorescence intensity,[21]; [26],30.8 MFI
same,fluorescence intensity,[21]; [27],48.5 MFI
same,fluorescence intensity,[21]; [28],167 MFI
same,fluorescence intensity,[21]; [29],750 MFI

# Seven successive entries already listed, for reference:
binder,measurement,setting,value
4-80.4 (protein) chain 1: QVQLQESGPGLVKPSETLSLTCAVSGGSFSSYWWSWIRQSPGKGLEWIGEISGNSGSTNYNPSLKSRVTISKDASKNQFSLKLSSVTAADTAVYYCARYKEYWGQGVLVTVSS chain 2: DVVMTQSPLSLLITPGQPASISCRSSQSLVHSNGNTYLSWYQQKPGQPPRRLLYEVSNRDSGVPDRFSGSGAGTDFTLKISRVEAEDVGVYYCGQGTHLPYSFGQGTKVEIK,fluorescence intensity,[6]; [27],18.5 MFI
same,fluorescence intensity,[6]; [28],18 MFI
same,fluorescence intensity,[6]; [29],20.5 MFI
same,fluorescence intensity,[6]; [22],20.5 MFI
same,fluorescence intensity,[6]; [23],31.2 MFI
same,fluorescence intensity,[7]; [24],17.2 MFI
same,fluorescence intensity,[7]; [25],15 MFI
